Results are given in words; binding and its absence hold for the method and conditions named. Some binding calls cover weakened binding; strength is not graded here. Tags and fused reporters may be left off the sequences shown.
Target: T1, CHO human PlGF-1 comprising amino acids 1-137 (human PlGF-1-His (1-131), CHO 6305) (human) (UniProt P49763)
T1 sequence (chain, N-glycans at N21 (completely glycosylated) and N89 (partially glycosylated)): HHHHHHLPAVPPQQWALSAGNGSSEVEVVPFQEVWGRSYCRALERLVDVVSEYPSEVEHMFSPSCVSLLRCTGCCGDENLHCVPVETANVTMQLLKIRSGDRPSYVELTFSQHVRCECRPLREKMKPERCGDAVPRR
Assay: ClonepixFL colony immunoprecipitation in semi-solid medium; CHO colonies secreting human PlGF-1 (1-131)

Sequences of proteins named here, by UniProt entry; tags and fusion partners are left off. A change or cut given only in a name is not applied to a line headed by its entry.
UniProt P49763: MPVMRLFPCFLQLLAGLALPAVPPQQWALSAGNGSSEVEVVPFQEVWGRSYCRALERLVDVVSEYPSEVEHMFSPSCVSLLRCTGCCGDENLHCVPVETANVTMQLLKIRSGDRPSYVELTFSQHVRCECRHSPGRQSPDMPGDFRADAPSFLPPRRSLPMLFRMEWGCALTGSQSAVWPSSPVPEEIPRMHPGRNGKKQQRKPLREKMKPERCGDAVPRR

binding: binds
B1: anti-human PlGF-1 monoclonal antibody from clone 1-255-189 (antibody, V domains shown)
VH: QVHLQQSGAELMKPGASVKISCKATGYTFSSYWIEWVKQRPGHGLEWIGEILPGSVSNNFNEKFKDKATLTADPSSNTAYIQVSSLTSEDSAVYYCARSTGFYYGGNYFDHWGQGTTLAVSS
VL: DVVMTQTPLSLPVSPGDQASISCRSSQSLVHSNGHTYLHWYLQKPGQSPKLLIYKVSNRFSGVPDRVSGSGSGTDFTLKISRVEAEDLGVYFCSQSTHVPPTFGGGTKLEIKR

Source: patent US20100015637A1 (AbbVie / Abbott, published 2010)
